Assay results taken from article doi:10.1101/2024.12.17.628858.
Where two headings read alike, the source gives them in different places. These are yes or no findings as the source states them, for the method shown. Binding seen in cells or lysates may run through a third protein. Some entries that bind do so weakly or less than the wild type.

Sequences of proteins named here, by UniProt entry; tags and fusion partners are left off. Residues count along the entry.
UniProt O75460, residues 19-977: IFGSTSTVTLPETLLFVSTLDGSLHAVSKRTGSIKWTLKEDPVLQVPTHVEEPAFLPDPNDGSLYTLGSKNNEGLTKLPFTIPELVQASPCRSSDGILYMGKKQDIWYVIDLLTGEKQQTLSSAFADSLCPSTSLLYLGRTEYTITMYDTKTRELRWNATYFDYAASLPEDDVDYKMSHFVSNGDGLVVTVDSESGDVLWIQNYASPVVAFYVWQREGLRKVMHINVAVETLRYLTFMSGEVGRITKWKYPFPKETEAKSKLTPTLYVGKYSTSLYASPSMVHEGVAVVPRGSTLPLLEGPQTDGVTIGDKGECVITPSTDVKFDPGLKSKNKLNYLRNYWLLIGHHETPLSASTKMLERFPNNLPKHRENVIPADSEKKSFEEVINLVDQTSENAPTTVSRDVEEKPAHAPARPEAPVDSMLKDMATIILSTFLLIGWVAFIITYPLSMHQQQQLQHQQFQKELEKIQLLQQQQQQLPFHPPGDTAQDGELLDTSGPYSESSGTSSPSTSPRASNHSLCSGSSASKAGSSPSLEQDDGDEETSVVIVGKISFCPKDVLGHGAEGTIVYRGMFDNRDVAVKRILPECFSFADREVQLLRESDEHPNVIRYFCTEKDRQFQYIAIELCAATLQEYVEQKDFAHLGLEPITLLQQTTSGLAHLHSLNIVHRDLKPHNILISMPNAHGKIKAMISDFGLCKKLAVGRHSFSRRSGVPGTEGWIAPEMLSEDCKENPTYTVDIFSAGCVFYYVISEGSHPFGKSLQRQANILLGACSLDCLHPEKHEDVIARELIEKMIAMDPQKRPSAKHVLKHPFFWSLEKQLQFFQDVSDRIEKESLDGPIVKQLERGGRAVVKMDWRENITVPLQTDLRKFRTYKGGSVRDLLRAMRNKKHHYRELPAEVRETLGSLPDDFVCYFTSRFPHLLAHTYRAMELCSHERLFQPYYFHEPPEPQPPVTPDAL
UniProt Q92616: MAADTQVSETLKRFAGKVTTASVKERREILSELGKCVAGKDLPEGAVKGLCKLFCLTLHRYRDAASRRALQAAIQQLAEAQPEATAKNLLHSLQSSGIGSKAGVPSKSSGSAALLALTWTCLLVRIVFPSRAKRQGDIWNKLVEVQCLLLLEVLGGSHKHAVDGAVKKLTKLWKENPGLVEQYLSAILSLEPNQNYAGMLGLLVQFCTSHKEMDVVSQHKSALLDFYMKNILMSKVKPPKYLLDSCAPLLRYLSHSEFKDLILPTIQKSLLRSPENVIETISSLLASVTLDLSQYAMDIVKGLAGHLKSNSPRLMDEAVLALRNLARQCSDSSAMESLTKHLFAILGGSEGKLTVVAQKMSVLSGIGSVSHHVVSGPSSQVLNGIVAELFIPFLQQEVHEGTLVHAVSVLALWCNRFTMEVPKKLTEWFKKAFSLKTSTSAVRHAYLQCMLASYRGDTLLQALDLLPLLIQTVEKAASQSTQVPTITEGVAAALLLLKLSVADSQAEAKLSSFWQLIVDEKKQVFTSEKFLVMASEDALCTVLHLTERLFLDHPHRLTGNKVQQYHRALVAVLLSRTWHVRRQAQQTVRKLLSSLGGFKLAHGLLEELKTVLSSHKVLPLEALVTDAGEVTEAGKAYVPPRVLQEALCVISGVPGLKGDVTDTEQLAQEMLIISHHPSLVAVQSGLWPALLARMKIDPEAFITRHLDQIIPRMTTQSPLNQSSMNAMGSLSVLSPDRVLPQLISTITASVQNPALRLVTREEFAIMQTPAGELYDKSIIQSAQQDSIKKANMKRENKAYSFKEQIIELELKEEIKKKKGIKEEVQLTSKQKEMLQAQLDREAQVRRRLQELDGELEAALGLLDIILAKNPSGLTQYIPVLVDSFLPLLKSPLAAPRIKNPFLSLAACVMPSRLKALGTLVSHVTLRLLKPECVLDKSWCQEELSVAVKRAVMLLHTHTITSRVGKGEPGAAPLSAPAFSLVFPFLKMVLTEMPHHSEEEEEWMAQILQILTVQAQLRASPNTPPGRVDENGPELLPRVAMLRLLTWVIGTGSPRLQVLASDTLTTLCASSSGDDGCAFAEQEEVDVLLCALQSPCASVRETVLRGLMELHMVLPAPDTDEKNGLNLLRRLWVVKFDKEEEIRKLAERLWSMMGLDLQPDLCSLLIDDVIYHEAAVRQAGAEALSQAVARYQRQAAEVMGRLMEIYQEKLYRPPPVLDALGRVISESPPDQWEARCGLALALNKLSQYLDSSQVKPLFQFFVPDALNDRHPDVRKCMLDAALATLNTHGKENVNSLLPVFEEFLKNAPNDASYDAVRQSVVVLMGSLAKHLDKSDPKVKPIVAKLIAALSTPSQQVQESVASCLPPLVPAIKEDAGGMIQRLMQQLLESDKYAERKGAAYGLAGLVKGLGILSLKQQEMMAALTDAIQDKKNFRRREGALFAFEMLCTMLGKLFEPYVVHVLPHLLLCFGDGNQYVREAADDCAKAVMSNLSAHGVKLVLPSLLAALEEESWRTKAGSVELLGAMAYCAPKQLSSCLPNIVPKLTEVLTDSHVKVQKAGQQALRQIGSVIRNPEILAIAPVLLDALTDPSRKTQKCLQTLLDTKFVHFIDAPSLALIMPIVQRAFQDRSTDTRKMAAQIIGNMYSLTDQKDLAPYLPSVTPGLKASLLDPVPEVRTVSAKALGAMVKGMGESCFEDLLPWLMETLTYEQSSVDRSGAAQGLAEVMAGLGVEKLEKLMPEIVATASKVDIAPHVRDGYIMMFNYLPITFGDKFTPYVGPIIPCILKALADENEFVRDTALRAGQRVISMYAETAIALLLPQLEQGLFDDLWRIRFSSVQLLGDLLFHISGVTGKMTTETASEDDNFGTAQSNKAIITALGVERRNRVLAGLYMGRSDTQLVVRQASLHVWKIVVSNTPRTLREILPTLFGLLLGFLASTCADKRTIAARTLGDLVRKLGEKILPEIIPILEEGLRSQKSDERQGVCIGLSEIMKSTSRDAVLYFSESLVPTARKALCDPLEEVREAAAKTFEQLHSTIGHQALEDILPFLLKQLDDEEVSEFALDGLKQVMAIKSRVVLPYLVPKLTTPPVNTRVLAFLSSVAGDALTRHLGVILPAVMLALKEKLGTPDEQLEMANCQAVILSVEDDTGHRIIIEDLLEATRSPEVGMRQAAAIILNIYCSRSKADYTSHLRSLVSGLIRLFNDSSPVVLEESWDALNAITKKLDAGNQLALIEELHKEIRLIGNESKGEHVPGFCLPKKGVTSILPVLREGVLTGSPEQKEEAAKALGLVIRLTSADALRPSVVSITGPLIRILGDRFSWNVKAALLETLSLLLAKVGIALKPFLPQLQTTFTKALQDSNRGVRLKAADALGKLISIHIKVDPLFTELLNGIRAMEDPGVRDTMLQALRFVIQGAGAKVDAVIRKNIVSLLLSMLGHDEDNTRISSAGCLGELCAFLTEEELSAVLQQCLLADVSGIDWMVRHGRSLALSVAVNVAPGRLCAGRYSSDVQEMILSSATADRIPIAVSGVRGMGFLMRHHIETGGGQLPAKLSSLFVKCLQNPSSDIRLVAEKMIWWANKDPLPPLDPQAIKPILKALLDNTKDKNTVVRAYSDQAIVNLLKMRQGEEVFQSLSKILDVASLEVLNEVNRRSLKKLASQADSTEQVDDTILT
UniProt Q9UGP8: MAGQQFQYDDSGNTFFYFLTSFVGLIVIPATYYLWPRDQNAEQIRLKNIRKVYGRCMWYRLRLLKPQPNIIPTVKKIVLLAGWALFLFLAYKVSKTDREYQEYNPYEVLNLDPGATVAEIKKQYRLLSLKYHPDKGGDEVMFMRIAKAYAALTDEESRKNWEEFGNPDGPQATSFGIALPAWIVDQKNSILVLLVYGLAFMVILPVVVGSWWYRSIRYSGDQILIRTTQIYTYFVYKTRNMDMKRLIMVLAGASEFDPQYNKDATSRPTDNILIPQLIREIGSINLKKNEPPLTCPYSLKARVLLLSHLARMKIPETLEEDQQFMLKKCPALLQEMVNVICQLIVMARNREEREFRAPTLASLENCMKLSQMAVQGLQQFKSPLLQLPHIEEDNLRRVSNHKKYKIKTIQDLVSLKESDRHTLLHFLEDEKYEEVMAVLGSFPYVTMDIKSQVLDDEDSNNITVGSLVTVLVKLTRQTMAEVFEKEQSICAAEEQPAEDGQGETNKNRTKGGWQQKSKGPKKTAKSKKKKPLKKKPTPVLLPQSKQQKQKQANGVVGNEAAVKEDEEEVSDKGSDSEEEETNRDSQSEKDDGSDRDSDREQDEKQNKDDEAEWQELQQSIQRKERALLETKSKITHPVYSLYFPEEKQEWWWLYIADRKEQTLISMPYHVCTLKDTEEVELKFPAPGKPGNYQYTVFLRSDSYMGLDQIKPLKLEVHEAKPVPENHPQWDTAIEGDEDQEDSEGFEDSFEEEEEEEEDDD

Columns and labels:
[1] = molecular target: full length IRE1 (triple FLAG tagged) (UniProt O75460); assay: co-IP
[2] = molecular target: full length IRE1 (triple FLAG tagged) (UniProt O75460); assay: co-IP; remark: listed apart in the source

Row | binding [1] | binding [2] | Molecule
1 | binds |  | GCN1 (from UniProt Q92616 1-2671)
2 |  | binds | RPN1 (protein, UniProt P04843 24-607) ASSEAPPLINEDVKRTVDLSSHLAKVTAEVVLAHLGGGSTSRATSFLLALEPELEARLAHLGVQVKGEDEEENNLEVRETKIKGKSGRFFTVKLPVALDPGAKISVIVETVYTHVLHPYPTQITQSEKQFVVFEGNHYFYSPYPTKTQTMRVKLASRNVESYTKLGNPTRSEDLLDYGPFRDVPAYSQDTFKVHYENNSPFLTITSMTRVIEVSHWGNIAVEENVDLKHTGAVLKGPFSRYDYQRQPDSGISSIRSFKTILPAAAQDVYYRDEIGNVSTSHLLILDDSVEMEIRPRFPLFGGWKTHYIVGYNLPSYEYLYNLGDQYALKMRFVDHVFDEQVIDSLTVKIILPEGAKNIEIDSPYEISRAPDELHYTYLDTFGRPVIVAYKKNLVEQHIQDIVVHYTFNKVLMLQEPLLVVAAFYILFFTVIIYVRLDFSITKDPAAEARMKVACITEQVLTLVNKRIGLYRHFDETVNRYKQSRDISTLNSGKKSLETEHKALTSEIALLQSRLKTEGSDLCDRVSEMQKLDAQVKELVLKSAVEAERLVAGKLKKDTYIENEKLISGKRQELVTKIDHILDAL

Continued, molecule first:

Row | Molecule | binding [1] | binding [2]
3 | SEC63 (from UniProt Q9UGP8 1-760) | binds | 
4 | ITPR3 (from UniProt Q14573 1-2671) | binds | 
